In US10407388B2, “Thiourea derivatives as activators of RORα and pharmaceutical composition containing same” (SEOUL NATIONAL UNIVERSITY R & DB FOUNDATION, priority 2011, dated 2019):
Some entries share one result that the patent states for a list of compounds.

Test system: LXRα
Experiment: Transcriptional activity of LXRα, LXRE-Luc reporter in HepG2 cells treated with T17
Format: cell-based, human
Details: 100 μM, 1 μM T17, 24 hours
Procedure: A human hepatoma cell line and HepG2 (ATCC HB 8065) were purchased from ATCC. HepG2 cells (1.2×10^5 cells/well) were seeded on a 24-well culture plate and cultured overnight in a DMEM containing 10% FBS. The HepG2 cells were maintained at 37° C. in a humidification thermostat containing 5% CO2 and 95% air. After culturing, the HepG2 cells were transformed with LXRE-Luc reporter (0.1 μg) using Welfect-EXTM Plus (WelGENE Inc., Korea). 24 hours after transformation, the HepG2 cells were treated with particular concentrations (1 μM, 10 μM, 20 μM, 50 μM, and 100 μM) of JC1-38, JC1-40, and JC1-42 and 1 μM T17 (T0901317), which is a ligand of LXRα, for 24 hours. Subsequently, cell lysates were collected, and luciferase activity was analyzed and determined using an analytical luminescence luminometer. The luciferase activity was standardized by β-gal activity to determine transcriptional activity, and data was attained as the mean and SD for two or three independent experimental results, and the results thereof are illustrated in FIG. 5a.

| Compound | decrease of the activity of LXRα induced by T17 |
| --- | --- |
| CNC(=S)NCc1ccc(OCc2ccccc2)cc1 [Compound 40, 1-(4-benzyloxy-benzyl)-3-methyl-thiourea] | ≥ 90% |
| CNC(=S)NCc1ccc(Oc2ccccc2)cc1 [Compound 42, 1-(4-phenoxy-benzyl)-3-methyl-thiourea] | ≥ 90% |
